# Laboratory results published in PMC11374673, “Discovery of isoquinoline sulfonamides as allosteric gyrase inhibitors with activity against fluoroquinolone-resistant bacteria” (Nature Chemistry, 2024).
# Several values for one entry are separate records, joined by “and”; a condition that tells them apart may be missing. Identical values can stand only once. The source gives many values for each of these; only a part stands here.
# Test system: E. coli W3110
# Test: Checkerboard assay with PMBN;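 also: OD600 read after 20 h incubation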
smiles,measurement,setting,value
O=S(=O)(NC[C@@H]1CC[C@H](c2ccc(-c3cccnc3)cc2)N1)c1cccc2cnccc12 [LEI-800],"checkerboard plate reading, replicate wells",LEI-800 0.195312 µM + PMBN 0 µM,0.535 and 0.5203 and 0.5192
same,"checkerboard plate reading, replicate wells",LEI-800 0.195312 µM + PMBN 0.5 µM,0.5011 and 0.522 and 0.5263
same,"checkerboard plate reading, replicate wells",LEI-800 0.195312 µM + PMBN 1 µM,0.4979 and 0.442 and 0.4655
same,"checkerboard plate reading, replicate wells",LEI-800 0.195312 µM + PMBN 2 µM,0.3541 and 0.3011 and 0.3007
same,"checkerboard plate reading, replicate wells",LEI-800 0.195312 µM + PMBN 4 µM,0.2087 and 0.215 and 0.2092
same,"checkerboard plate reading, replicate wells",LEI-800 0.195312 µM + PMBN 8 µM,0.1958 and 0.1923 and 0.188
same,"checkerboard plate reading, replicate wells",LEI-800 0.195312 µM + PMBN 16 µM,0.1997 and 0.227 and 0.2301
same,"checkerboard plate reading, replicate wells",LEI-800 0.195312 µM + PMBN 32 µM,0.2097 and 0.1963 and 0.1928
same,"checkerboard plate reading, replicate wells",LEI-800 0.390625 µM + PMBN 0 µM,0.4906 and 0.4781 and 0.4958
same,"checkerboard plate reading, replicate wells",LEI-800 0.390625 µM + PMBN 0.5 µM,0.4403 and 0.4459 and 0.4522
same,"checkerboard plate reading, replicate wells",LEI-800 0.390625 µM + PMBN 1 µM,0.3216 and 0.2987 and 0.3462
same,"checkerboard plate reading, replicate wells",LEI-800 0.390625 µM + PMBN 2 µM,0.1657 and 0.243 and 0.1494
same,"checkerboard plate reading, replicate wells",LEI-800 0.390625 µM + PMBN 4 µM,0.1402 and 0.1389 and 0.1296
same,"checkerboard plate reading, replicate wells",LEI-800 0.390625 µM + PMBN 8 µM,0.1397 and 0.1401 and 0.1413
same,"checkerboard plate reading, replicate wells",LEI-800 0.390625 µM + PMBN 16 µM,0.1452 and 0.1512 and 0.1524
same,"checkerboard plate reading, replicate wells",LEI-800 0.390625 µM + PMBN 32 µM,0.1585 and 0.1496 and 0.1456
same,"checkerboard plate reading, replicate wells",LEI-800 0.78125 µM + PMBN 0 µM,0.4149 and 0.4088 and 0.4335
same,"checkerboard plate reading, replicate wells",LEI-800 0.78125 µM + PMBN 0.5 µM,0.135 and 0.1359 and 0.1369
same,"checkerboard plate reading, replicate wells",LEI-800 0.78125 µM + PMBN 1 µM,0.1543 and 0.138 and 0.1466
same,"checkerboard plate reading, replicate wells",LEI-800 0.78125 µM + PMBN 2 µM,0.1536 and 0.147 and 0.1407
same,"checkerboard plate reading, replicate wells",LEI-800 0.78125 µM + PMBN 4 µM,0.1464 and 0.1357 and 0.1351
same,"checkerboard plate reading, replicate wells",LEI-800 0.78125 µM + PMBN 8 µM,0.1367 and 0.1386 and 0.1393
same,"checkerboard plate reading, replicate wells",LEI-800 0.78125 µM + PMBN 16 µM,0.1384 and 0.1474 and 0.1551
same,"checkerboard plate reading, replicate wells",LEI-800 0.78125 µM + PMBN 32 µM,0.1521 and 0.1446 and 0.1389
same,"checkerboard plate reading, replicate wells",LEI-800 1.5625 µM + PMBN 0 µM,0.3398 and 0.3215 and 0.3217
same,"checkerboard plate reading, replicate wells",LEI-800 1.5625 µM + PMBN 0.5 µM,0.1453 and 0.1484 and 0.1497
same,"checkerboard plate reading, replicate wells",LEI-800 1.5625 µM + PMBN 1 µM,0.1501 and 0.1492
same,"checkerboard plate reading, replicate wells",LEI-800 1.5625 µM + PMBN 8 µM,0.1488 and 0.1504 and 0.1495
same,"checkerboard plate reading, replicate wells",LEI-800 1.5625 µM + PMBN 16 µM,0.1527 and 0.1512 and 0.1597
same,"checkerboard plate reading, replicate wells",LEI-800 1.5625 µM + PMBN 32 µM,0.1409 and 0.1426 and 0.1439
